Source: PMC10516711
No constants are given. Whether binding was seen depends on the method and setting. Binding seen in cells or lysates may run through a third protein.

Sequences of proteins named here, by UniProt entry; tags and fusion partners are left off. A change or cut given only in a name is not applied to a line headed by its entry. A line that says so, or that is headed by a name, gives the form on record, which may keep a tag or linker.
FLAG-SET/TAF-Iβ (Q01105, form named): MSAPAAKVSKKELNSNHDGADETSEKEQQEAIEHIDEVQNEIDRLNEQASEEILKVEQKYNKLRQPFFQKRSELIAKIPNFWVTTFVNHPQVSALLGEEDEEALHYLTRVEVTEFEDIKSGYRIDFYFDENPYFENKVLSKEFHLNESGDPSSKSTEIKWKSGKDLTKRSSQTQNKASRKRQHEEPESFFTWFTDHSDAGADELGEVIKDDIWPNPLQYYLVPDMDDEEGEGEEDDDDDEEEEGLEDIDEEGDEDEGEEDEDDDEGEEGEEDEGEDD
UniProt Q99496: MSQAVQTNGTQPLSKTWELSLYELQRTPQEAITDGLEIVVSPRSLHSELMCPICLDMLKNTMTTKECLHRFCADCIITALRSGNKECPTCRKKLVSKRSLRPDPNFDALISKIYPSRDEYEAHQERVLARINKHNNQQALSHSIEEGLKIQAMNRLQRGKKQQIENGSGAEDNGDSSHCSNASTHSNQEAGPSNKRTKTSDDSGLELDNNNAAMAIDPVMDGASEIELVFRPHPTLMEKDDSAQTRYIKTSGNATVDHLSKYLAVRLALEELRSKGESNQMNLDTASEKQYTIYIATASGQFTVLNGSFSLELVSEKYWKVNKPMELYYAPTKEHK
UniProt P35226: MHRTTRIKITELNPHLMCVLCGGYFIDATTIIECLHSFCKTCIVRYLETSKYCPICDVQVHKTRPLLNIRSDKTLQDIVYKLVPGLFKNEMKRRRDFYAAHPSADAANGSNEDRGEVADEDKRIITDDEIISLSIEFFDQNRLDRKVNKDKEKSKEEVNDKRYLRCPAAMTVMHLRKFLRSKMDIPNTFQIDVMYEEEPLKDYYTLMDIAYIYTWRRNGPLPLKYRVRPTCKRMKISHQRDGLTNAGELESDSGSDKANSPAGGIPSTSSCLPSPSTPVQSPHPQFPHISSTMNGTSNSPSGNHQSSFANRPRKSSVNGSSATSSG

What follows are molecules tested against FLAG-SET/TAF-Iβ (UniProt Q01105) (assay: co-IP; ectopic expression followed by co-IP of SET/TAF-Iβ with PRC1-associated proteins; cells and tags not given).

binding	Molecule
no binding	RING1B (from UniProt Q99496 1-336)
no binding	RYBP (protein, UniProt Q8N488 1-228) MTMGDKKSPTRPKRQAKPAADEGFWDCSVCTFRNSAEAFKCSICDVRKGTSTRKPRINSQLVAQQVAQQYATPPPPKKEKKEKVEKQDKEKPEKDKEISPSVTKKNTNKKTKPKSDILKDPPSEANSIQSANATTKTSETNHTSRPRLKNVDRSTAQQLAVTVGNVTVIITDFKEKTRSSSTSSSTVTSSAGSEQQNQSSSGSESTDKGSSRSSTPKGDMSAVNDESF

Second part, the molecule before the results:

Molecule	binding
BMI1 (from UniProt P35226 1-326)	no binding
CBX8 (protein, UniProt Q9HC52 1-389) MELSAVGERVFAAEALLKRRIRKGRMEYLVKWKGWSQKYSTWEPEENILDARLLAAFEEREREMELYGPKKRGPKPKTFLLKAQAKAKAKTYEFRSDSARGIRIPYPGRSPQDLASTSRAREGLRNMGLSPPASSTSTSSTCRAEAPRDRDRDRDRDRERDRERERERERERERERERERGTSRVDDKPSSPGDSSKKRGPKPRKELPDPSQRPLGEPSAGLGEYLKGRKLDDTPSGAGKFPAGHSVIQLARRQDSDLVQCGVTSPSSAEATGKLAVDTFPARVIKHRAAFLEAKGQGALDPNGTRVRHGSGPPSSGGGLYRDMGAQGGRPSLIARIPVARILGDPEEESWSPSLTNLEKVVVTDVTSNFLTVTIKESNTDQGFFKEKR	no binding
KDM2B (protein, UniProt Q8NHM5 1-1336) MAGPQMGGSAEDHPPRKRHAAEKQKKKTVIYTKCFEFESATQRPIDRQRYDENEDLSDVEEIVSVRGFSLEEKLRSQLYQGDFVHAMEGKDFNYEYVQREALRVPLIFREKDGLGIKMPDPDFTVRDVKLLVGSRRLVDVMDVNTQKGTEMSMSQFVRYYETPEAQRDKLYNVISLEFSHTKLEHLVKRPTVVDLVDWVDNMWPQHLKEKQTEATNAIAEMKYPKVKKYCLMSVKGCFTDFHIDFGGTSVWYHVFRGGKIFWLIPPTLHNLALYEEWVLSGKQSDIFLGDRVERCQRIELKQGYTFFIPSGWIHAVYTPVDSLVFGGNILHSFNVPMQLRIYEIEDRTRVQPKFRYPFYYEMCWYVLERYVYCVTQRSHLTQEYQRESMLIDAPRKPSIDGFSSDSWLEMEEEACDQQPQEEEEKDEEGEGRDRAPKPPTDGSTSPTSTPSEDQEALGKKPKAPALRFLKRTLSNESEESVKSTTLAVDYPKTPTGSPATEVSAKWTHLTEFELKGLKALVEKLESLPENKKCVPEGIEDPQALLEGVKNVLKEHADDDPSLAITGVPVVTWPKKTPKNRAVGRPKGKLGPASAVKLAANRTTAGARRRRTRCRKCEACLRTECGECHFCKDMKKFGGPGRMKQSCIMRQCIAPVLPHTAVCLVCGEAGKEDTVEEEEGKFNLMLMECSICNEIIHPGCLKIKESEGVVNDELPNCWECPKCNHAGKTGKQKRGPGFKYASNLPGSLLKEQKMNRDNKEGQEPAKRRSECEEAPRRRSDEHSKKVPPDGLLRRKSDDVHLRKKRKYEKPQELSGRKRASSLQTSPGSSSHLSPRPPLGSSLSPWWRSSLTYFQQQLKPGKEDKLFRKKRRSWKNAEDRMALANKPLRRFKQEPEDELPEAPPKTRESDHSRSSSPTAGPSTEGAEGPEEKKKVKMRRKRRLPNKELSRELSKELNHEIQRTENSLANENQQPIKSEPESEGEEPKRPPGICERPHRFSKGLNGTPRELRHQLGPSLRSPPRVISRPPPSVSPPKCIQMERHVIRPPPISPPPDSLPLDDGAAHVMHREVWMAVFSYLSHQDLCVCMRVCRTWNRWCCDKRLWTRIDLNHCKSITPLMLSGIIRRQPVSLDLSWTNISKKQLSWLINRLPGLRDLVLSGCSWIAVSALCSSSCPLLRTLDVQWVEGLKDAQMRDLLSPPTDNRPGQMDNRSKLRNIVELRLAGLDITDASLRLIIRHMPLLSKLHLSYCNHVTDQSINLLTAVGTTTRDSLTEINLSDCNKVTDQCLSFFKRCGNICHIDLRYCKQVTKEGCEQFIAEMSVSVQFGQVEEKLLQKLS	no binding
